The values that follow come from the supplement of paper PMC5949888.

Most values lie at the floor of the assay. Slopes are relative: functional sequences can read slightly below zero.

In the data set the test system is Saccharomyces cerevisiae PS128 hsf1 delta, HSF1(1-493) fusion. In words: growth estimate (transactivation domain function in HSF1 fusion, heat-shock survival) (a.u. (slope of normalised read count over time)); higher = stronger growth at 37°C, i.e. more transactivation activity. Particulars: library: random library.
As for TGASRAALSACKSCSTGPTM, the growth estimate was below -0.25. As for FRVSRVGAAVICTRYLHQAR, the growth estimate was below -0.25. In the case of RNQGAFESQFTSHSR it was below -0.25; in that of HGWLSPRGHCALPGTRLFAS, below -0.25; in that of RGGDLLQKFVTSRREVSDCD, below -0.25. For the substance WIRYELGSKVGQPGKRATSG, the growth estimate is below -0.25. The value for QQCPGGS was below -0.25.

In the case of AGTTSVYGQYMS, the growth estimate is below -0.25.

Turning to VWPSFPALSKPYKSLRDFCD, the growth estimate is below -0.25. In the case of FLKLLGIKRSFL it was below -0.25. Take YGRSIAKFPHATQTVSVGGI: the growth estimate is below -0.25.

With YFPAYNLTIRKGGPYLFLFG, the growth estimate was below -0.25. Turning to TDGCRSYQRSILQCRWGGIG, the growth estimate was below -0.25. In the case of QHPYEIWRTL it was below -0.25.

As for RVGS, the growth estimate was below -0.25. The value for LVVT was below -0.25; that for VPRSRD was below -0.25. For the substance RQVLADKLHGILGGVCEGTG, the growth estimate is below -0.25. Turning to TNGGYRQG, the growth estimate is below -0.25.

As to FHSTTPGLAAPLKDEADYMV, the growth estimate was below -0.25.

In the case of SGPRGFGENRYHMLVTGDDR, the growth estimate was below -0.25. Regarding QQVVSA, the growth estimate was below -0.25. In the case of PRGLCGLHFDGQH it was -0.183; in that of YACLGSN, below -0.25; in that of YGTEACRRRE, below -0.25. In the case of KKAIGFVVPMRQGRLASPDR it was below -0.25; in that of SGFLSPILSHIGSLMILTLR, below -0.25. AYPPVAGMVTSIVS: the growth estimate was below -0.25. With AGRPAL, the growth estimate is below -0.25. In the case of GGVCKWIALLEIDPDVR it was below -0.25; in that of KIEERRILTLSS, below -0.25; in that of YPCNWVRSGNSVSGQSNVGS, below -0.25. In the case of VQAIARRGAFAMLLFWVTGL, the growth estimate was below -0.25. As to WCRGLTV, the growth estimate was below -0.25. The value for NPLLNLTASPLVQHPLQIV was below -0.25; that for HGT was below -0.25; that for GVAKLCRFNCTRNVARSGPK was below -0.25. For PIRFTACNFIIKRCGELPGS, the growth estimate was below -0.25. RNDAKRRTLTSETGAETTGR: the growth estimate is below -0.25. In the case of VQPPSGSE it was below -0.25; in that of VFDVSAWG, 0.0415; in that of VLQCLR, below -0.25.

Turning to GLVTANITYMPGGKLVSSHL, the growth estimate was -0.245.

For SGKAHLLSWSLSVHMHHTLG, the growth estimate was below -0.25. In the case of QGTAIVKSAAPGGSWRSI it was below -0.25; in that of GAVA, below -0.25; in that of AEYPGGKGTSNKESCHQPTI, below -0.25.

KHSSDDSGPAYG: the growth estimate was below -0.25. The value for RREGVQCICLVVCIVRDVRT was below -0.25.

Take FQPSPTTFGGLST: the growth estimate is below -0.25. GAITRHSQR: the growth estimate was -0.245.

For RRDINPPC, the growth estimate was below -0.25. In the case of NLLYRARVVAGIRLGRVSLG it was below -0.25; in that of FPGCVVTSYESYTPKKLGQE, below -0.25.

As for AFPKSRLSLIWDRARDLAM, the growth estimate was below -0.25.

For AYGSYNHQNNRRVL, the growth estimate was below -0.25. On to HFAGLAWGLVP, for which the growth estimate is below -0.25. Take RKLLSY: the growth estimate was below -0.25.

For the substance SSY, the growth estimate is below -0.25.

Regarding TMNRNSIERSEQP, the growth estimate is below -0.25. In the case of IGWTFTGTVRRLAQTPIHSD it was below -0.25; in that of PDTRLVVGIGPGIFSGAESC, below -0.25. In the case of SDGTYQPDLVIWELDGSGSR it was below -0.25. The value for QSR was below -0.25. As for HVRHGYRCEGAWLSWRQVAS, the growth estimate is below -0.25. In the case of LNTHETAGLPKGSISS it was below -0.25.

Take CLDYGGISG: the growth estimate was below -0.25. The value for CASSGVDSFLCRPTMLKPSS was below -0.25. In the case of RSTMSQHIPYLFGRISSQEE it was below -0.25. Turning to IRVEYRR, the growth estimate is below -0.25.

On to SESILL, for which the growth estimate was below -0.25. Consider AASRWAGSFFGHFREPEGPD, for which the growth estimate is below -0.25.

Regarding AVQVMSLDPWIVALSELLIS, the growth estimate is below -0.25. In the case of YWS it was below -0.25; in that of TWYRASN, below -0.25.

Turning to VKCFGWGTHHLRNDLVRFTR, the growth estimate was below -0.25. As for EPGVSGKIAWVEHFWG, the growth estimate was below -0.25. The value for LCVSDIQMGDSPELEA was below -0.25; that for IPTHSGAYPGAYEEALSR was below -0.25.
